# Results: US20090280169A1, “Compositions of peptides and processes of preparation thereof” (Merrion Research III Limited, priority 2008, published 2009)
# The name of at least one read-out is uncertain. Non-standard residues stand in square brackets, D forms with d. Residues, ends and D or L forms follow the SMILES beside them. dPhe(4-NH2) = Nc1ccc(C[C@@H](N)C(=O)O)cc1; dPhe(4-Cl) = N[C@H](Cc1ccc(Cl)cc1)C(=O)O; Phe(4-NH2) = Nc1ccc(C[C@H](N)C(=O)O)cc1; d2Nal = N[C@H](Cc1ccc2ccccc2c1)C(=O)O; Lys(iPr) = CC(C)NCCCC[C@H](N)C(=O)O; d3Pal = N[C@H](Cc1cccnc1)C(=O)O
# Test: Impact of sodium caprate concentration on gelation (recovery) of acyline in water
# Assay type: physicochemical
compound,measurement,setting,value
"CC(=O)Nc1ccc(C[C@H](NC(=O)[C@H](CO)NC(=O)[C@@H](Cc2cccnc2)NC(=O)[C@@H](Cc2ccc(Cl)cc2)NC(=O)[C@@H](Cc2ccc3ccccc3c2)NC(C)=O)C(=O)N[C@H](Cc2ccc(NC(C)=O)cc2)C(=O)N[C@@H](CC(C)C)C(=O)N[C@@H](CCCCNC(C)C)C(=O)N2CCC[C@H]2C(=O)N[C@H](C)C(N)=O)cc1 [acyline, Ac-D2Nal-D4Cpa-D3Pal-Ser4Aph(Ac)-D4Aph(Ac)-Leu-ILys-Pro-DAla-NH2] (Ac-[d2Nal][dPhe(4-Cl)][d3Pal]S[Phe(4-NH2)](Ac)[dPhe(4-NH2)](Ac)L[Lys(iPr)]P[dA]-NH2)",recovery of acyline,sodium caprate at and above its CMC (~20 mg/mL),sudden and significant increase
same,recovery of acyline,sodium caprate below 10 mg/mL,significantly decreases
